No constants are given. Whether binding was seen depends on the method and setting. Binding seen in cells or lysates may run through a third protein. Some results given as binding are weak or reduced against the parent protein; the word gives no strength.

By UniProt entry, the sequences of proteins in these tests, tags left out.
UniProt Q9JM80: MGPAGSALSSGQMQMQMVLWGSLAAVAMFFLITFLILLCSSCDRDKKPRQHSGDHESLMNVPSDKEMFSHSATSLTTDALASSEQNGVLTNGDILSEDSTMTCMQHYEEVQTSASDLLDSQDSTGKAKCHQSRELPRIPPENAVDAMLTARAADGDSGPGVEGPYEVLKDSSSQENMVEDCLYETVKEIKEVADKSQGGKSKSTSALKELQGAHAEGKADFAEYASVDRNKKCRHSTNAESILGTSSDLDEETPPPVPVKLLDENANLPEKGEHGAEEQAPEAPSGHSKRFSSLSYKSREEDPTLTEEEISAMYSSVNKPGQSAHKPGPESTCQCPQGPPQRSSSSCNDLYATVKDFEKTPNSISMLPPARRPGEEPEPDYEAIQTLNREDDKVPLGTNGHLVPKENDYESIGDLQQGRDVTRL
UniProt P32577: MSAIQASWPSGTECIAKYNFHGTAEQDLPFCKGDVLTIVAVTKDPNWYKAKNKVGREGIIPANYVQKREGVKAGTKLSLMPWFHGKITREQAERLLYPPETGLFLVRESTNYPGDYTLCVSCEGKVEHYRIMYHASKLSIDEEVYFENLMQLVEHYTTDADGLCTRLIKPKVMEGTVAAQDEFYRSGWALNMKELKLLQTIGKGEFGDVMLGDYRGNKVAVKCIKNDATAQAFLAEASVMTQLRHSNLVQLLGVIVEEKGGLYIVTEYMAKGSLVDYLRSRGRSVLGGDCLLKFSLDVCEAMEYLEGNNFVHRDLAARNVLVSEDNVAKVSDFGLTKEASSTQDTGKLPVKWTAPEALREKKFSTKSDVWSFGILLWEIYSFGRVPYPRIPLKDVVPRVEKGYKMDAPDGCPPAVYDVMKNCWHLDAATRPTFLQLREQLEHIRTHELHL

Assay [1] addresses transmembrane glycoprotein PAG/Cbp (PAG) (rat (endogenous in RBL-2H3)) (UniProt Q9JM80). In words: co-IP; PAG immunoprecipitated with mouse anti-PAG IgG (1 or 4 ug) and protein G-Sepharose overnight at 4 C from precleared NP-40 lysates (0.1% NP-40, 150 mM NaCl, pH 7.5), blotted with anti-Csk. Cells were resting WT RBL cells, and sh-Ctrl, sh-Shp2-#1 and sh-Shp2-#2 RBL cells sensitized, starved and stimulated with 10 ng/ml DNP for the indicated times.

The target of assay [2] is C-terminal Src kinase (Csk) (rat (endogenous in RBL-2H3)) (UniProt P32577). The assay is described as follows: co-IP; Csk immunoprecipitated with anti-Csk and protein G-Sepharose overnight at 4 C from precleared NP-40 lysates, blotted with anti-phosphotyrosine (4G10). Cells were sh-Ctrl, sh-Shp2-#1 and sh-Shp2-#2 RBL cells sensitized, starved and stimulated with 10 ng/ml DNP for the indicated times.

For the substance “C-terminal Src kinase (Csk) (from UniProt P32577 1-450)”, in assay [1], the binding entry is given as “binds”.
Turning to “transmembrane glycoprotein PAG/Cbp (PAG) (from UniProt Q9JM80 1-424)”, the binding entry in assay [2] is “binds”.

The record behind these values is paper PMC3393662.
